In all, about 580,000 compounds went through this assay and about 6,100 (1.1%) were called active. Inconclusive means that the source gave no clear call. Such entries were picked first, then a sample of the others. Calls come from the whole dose curve; as a rule, active = well fitted inhibition curve with a large enough effect; inconclusive = small, poorly fitted or top-dose-only effect, or another doubt; inactive = no such curve, though single readings can be large or run the other way. A potency beside an inconclusive call is a rough fit, not a confirmed value.
Biological target: Polyunsaturated fatty acid lipoxygenase ALOX12 (Homo sapiens) (UniProt P18054)
Assay: Primary qHTS assay for inhibitors of human arachidonate 12S-lipoxygenase (ALOX12): Round 2
Settings: purified 12hLO, xylenol orange hydroperoxide absorbance; activity change, negative = inhibition: at 108 µM (top of the series) unless noted
In short: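 Hydroperoxide product was detected by ferrous iron/xylenol orange as the 573 to 405 nm absorbance ratio. Arachidonic acid at 40 uM (final) was turned over for 30 min at room temperature by 150 nM human 12hLO, pH 7.0 Hepes buffer, after 15 min compound preincubation.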
% is set by controls: 0 for no effect and ±100 for the full control effect; potency is the fitted concentration of half-maximal effect.

By UniProt entry, the sequences of proteins in these tests, tags left out. Where a name states a change or a piece, a line headed by the entry shows the natural chain unless it says otherwise.
UniProt P18054: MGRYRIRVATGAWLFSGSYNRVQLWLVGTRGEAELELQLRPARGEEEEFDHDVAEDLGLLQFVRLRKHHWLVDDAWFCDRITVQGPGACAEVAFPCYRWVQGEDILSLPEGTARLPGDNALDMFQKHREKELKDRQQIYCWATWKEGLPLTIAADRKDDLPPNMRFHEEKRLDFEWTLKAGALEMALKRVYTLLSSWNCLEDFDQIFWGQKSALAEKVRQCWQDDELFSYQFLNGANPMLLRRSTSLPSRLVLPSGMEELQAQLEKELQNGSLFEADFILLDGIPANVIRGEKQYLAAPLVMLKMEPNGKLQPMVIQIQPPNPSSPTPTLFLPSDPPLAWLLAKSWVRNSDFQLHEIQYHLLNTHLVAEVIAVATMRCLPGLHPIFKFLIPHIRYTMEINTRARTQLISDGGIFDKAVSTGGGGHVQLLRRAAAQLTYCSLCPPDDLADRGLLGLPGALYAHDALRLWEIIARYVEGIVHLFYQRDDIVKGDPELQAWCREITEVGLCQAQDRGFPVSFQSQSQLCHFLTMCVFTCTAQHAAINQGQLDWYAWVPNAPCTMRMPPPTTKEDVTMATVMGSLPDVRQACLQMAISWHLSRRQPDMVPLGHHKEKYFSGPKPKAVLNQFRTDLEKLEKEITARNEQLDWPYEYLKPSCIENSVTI

| Compound | Potency | activity change, negative = inhibition |
| --- | --- | --- |
| Cn1c(C(=O)NCCc2c[nH]c3ccccc23)cc2sccc21 | inconclusive: 50.1 µM [inhibitor, partial curve, poor fit] | – |
| O=C1Nc2ccc(-c3ccccc3)cc2C(=O)N2CCN(C(=O)c3cccs3)C[C@H]12 | inconclusive: 25.1 µM [inhibitor, full curve] | – |
| Cc1ccc(C2C(C(=O)c3ccco3)=C(O)C(=O)N2c2nnc(C)s2)cc1 (stereo not given) | inconclusive: 0.631 µM [inhibitor, full curve, poor fit] | – |
| CC(=O)NC[C@H]1O[C@@H](CO)[C@@H](O)[C@H]1N1CCc2ccccc2C1 | inconclusive: 15.8 µM [inhibitor, full curve, poor fit] | – |
| CCOC(=O)c1c(C)[nH]c(C(=O)COC(=O)c2ccccc2NC(=O)c2ccco2)c1C | inconclusive: 112 µM [inhibitor, partial curve, poor fit] | – |
| CCn1cc(C(=O)N[C@@H](C)C(=O)OC)c(=O)c2cc3c(cc21)OCO3 | inconclusive: 112 µM [inhibitor, single point] | – |
| CN(C(=O)c1ccc(NC(=O)Cc2ccc([N+](=O)[O-])cc2)cc1)C1CCCC1 | inconclusive: 89.1 µM [inhibitor, single point] | – |
| CN(Cc1ccccc1)C1CCN(Cc2ccccc2[N+](=O)[O-])CC1 | inconclusive: 0.251 µM [inhibitor, full curve, poor fit] | – |
| CC1=C(C(=O)OCc2ccccc2)C(c2ccsc2)C(C#N)=C(N)O1 (stereo not given) | inconclusive: 79.4 µM [inhibitor, single point] | – |
| O=C(Nc1ccc(S(=O)(=O)Nc2ncccn2)cc1)c1cc(=O)c2ccccc2o1 | inconclusive: 50.1 µM [inhibitor, single point] | – |
| CC(=O)c1ccc(NC(=O)C23CC4CC(CC(C4)C2)C3)cc1 | inconclusive: 79.4 µM [inhibitor, single point] | – |
| COc1ccc(OC)c(S(=O)(=O)CC(=O)c2cc3ccccc3oc2=O)c1 | inconclusive: 44.7 µM [inhibitor, partial curve, poor fit] | – |
| CCOc1cc(=O)n2c(c1C(=O)NCc1ccc3c(c1)OCO3)CCCC2 | inconclusive: 14.1 µM [inhibitor, full curve, poor fit] | – |
| C=CC[C@@H]1Cc2c(N)cccc2[C@@H](CC=C)N1 | – | inactive: -14.3% |
| O=C(NC(=S)Nc1ccccc1N1CCCC1)c1ccco1 | inconclusive: 112 µM [inhibitor, single point] | – |
| Cc1ccc(C(C)NC(=O)c2cccs2)cc1C (stereo not given) | inconclusive: 126 µM [inhibitor, single point] | – |
| CN(C)CCN(C(=O)C1CCN(S(=O)(=O)c2cccs2)CC1)c1nc2ccc(F)cc2s1 | inconclusive: 44.7 µM [inhibitor, partial curve] | – |
| CCOc1cccc(C2C(C(=O)c3ccc(C)o3)=C(O)C(=O)N2Cc2ccncc2)c1 (stereo not given) | inconclusive: 20 µM [inhibitor, partial curve, poor fit] | – |
| CCC(C)(C)c1ccc(Oc2ccc(NC(=O)COC(=O)C3=COCCO3)cc2)cc1 | inconclusive: 50.1 µM [inhibitor, single point] | – |
| COc1ncccc1-c1cc(C(=O)NCc2c(C)cc(C)[nH]c2=O)c2c(c1)N(C)CCO2 | inconclusive: 126 µM [inhibitor, partial curve, poor fit] | – |

| Compound | Potency | activity change, negative = inhibition |
| --- | --- | --- |
| CCOC(=O)CN1C(=O)C(O)(CC(=O)c2ccco2)c2ccccc21 (stereo not given) | inconclusive: 35.5 µM [inhibitor, single point] | – |
| CC(C)(C)OC(=O)NCc1ccc(CNC(=O)c2[nH]cnc2C(=O)N[C@@H](Cc2ccccc2)C(=O)OC(C)(C)C)cc1 | – | inactive: 3.48% |
| O=C(CC1C(=O)N(c2ccccc2)C(=O)N1Cc1ccc(F)cc1)Nc1cccc(F)c1 (stereo not given) | – | inconclusive: -47% [inhibitor] |
| Cc1cc(NC(=O)N2CCC(CN3CCCCCC3)CC2)ccc1Br | inconclusive: 50.1 µM [inhibitor, partial curve, poor fit] | – |
| Cc1ccc(NC(=O)NC(=S)NC(=O)c2ccccc2)cc1 | – | inactive: -7.02% |
| Cc1ccc(C2=NN(C(=O)Cn3cnc4sccc4c3=O)C(c3ccco3)C2)cc1 (stereo not given) | inconclusive: 39.8 µM [inhibitor, partial curve, poor fit] | – |
| CC1=NN(c2ccc([N+](=O)[O-])cc2)C(=O)/C1=C\N(C)C | inconclusive: 39.8 µM [inhibitor, partial curve] | – |
| O=C(CC1(O)C(=O)N(Cc2ccccc2)c2ccccc21)c1ccccc1Cl (stereo not given) | inconclusive: 63.1 µM [inhibitor, partial curve, poor fit] | – |
| CS(=O)(=O)c1ccc(-c2nnc(NC(=O)c3cccc(N4C(=O)CCC4=O)c3)o2)cc1 | – | inactive: -6.89% |
| CCOc1ccc(NC(=O)C2CC(=O)N3CCCN=C3S2)cc1 (stereo not given) | inconclusive: 35.5 µM [inhibitor, single point] | – |
| CCn1ccc(C(=O)N2CCC3(CCCCO3)CC2)n1 | – | inactive: 19.2% |
| CCc1ccc(Cc2cnc(NC(=O)C3=Cc4ccccc4OC3)s2)cc1 | – | inactive: 2.12% |
| Cc1ccc(S(=O)(=O)NC(CCCNC(=O)OCc2ccccc2)C(=O)O)cc1 (stereo not given) | inconclusive: 50.1 µM [inhibitor, partial curve, poor fit] | – |
| Cc1nc(NC(=O)CCOc2ccc(Cl)cc2)sc1C | inconclusive: 0.794 µM [inhibitor, full curve, poor fit] | – |
| CN(C)c1ccc(NC(=O)CC(c2ccccc2)c2ccccc2)cc1 | inconclusive: 50.1 µM [inhibitor, partial curve, poor fit] | – |
| O=C(O)Cn1cc2c(n1)CCCC2 | active: 20 µM | – |
| CN(C)S(=O)(=O)c1cccc(C(=O)OCC(=O)Nc2ccccc2OC(F)F)c1 | – | inactive: 0% |
| CC1CN(C(=O)C(C)Sc2nc3ccccc3s2)CC(C)O1 (stereo not given) | – | inactive: 0% |
| CC(C)c1nc2ccccc2n1CCC(=O)O | inconclusive: 5.01 µM [inhibitor, full curve, poor fit] | – |
| O=C(c1cc2cc(Br)ccc2o1)c1ccccc1F | inconclusive: 0.708 µM [inhibitor, full curve, poor fit] | – |

2 of the compounds above, with tabs.
Compound	Potency	activity change, negative = inhibition
CCOC(=O)c1c(C)[nH]c(C(=O)COC(=O)c2ccccc2NC(=O)c2ccco2)c1C	inconclusive: 112 µM [inhibitor, partial curve, poor fit]	–
CCn1cc(C(=O)N[C@@H](C)C(=O)OC)c(=O)c2cc3c(cc21)OCO3	inconclusive: 112 µM [inhibitor, single point]	–

Reference: PubChem BioAssay AID1671190 (National Center for Advancing Translational Sciences (NCATS), 2021)
